Experimental data taken from US20090324603A1 (VAN ANDEL RESEARCH INSTITUTE, published 2009).
These are yes or no findings as the source states them, for the method shown. Some binding calls cover weakened binding; strength is not graded here.

By UniProt entry, the sequences of proteins in these tests, tags left out. Residues count along the entry.
UniProt P08581, residues 25-932: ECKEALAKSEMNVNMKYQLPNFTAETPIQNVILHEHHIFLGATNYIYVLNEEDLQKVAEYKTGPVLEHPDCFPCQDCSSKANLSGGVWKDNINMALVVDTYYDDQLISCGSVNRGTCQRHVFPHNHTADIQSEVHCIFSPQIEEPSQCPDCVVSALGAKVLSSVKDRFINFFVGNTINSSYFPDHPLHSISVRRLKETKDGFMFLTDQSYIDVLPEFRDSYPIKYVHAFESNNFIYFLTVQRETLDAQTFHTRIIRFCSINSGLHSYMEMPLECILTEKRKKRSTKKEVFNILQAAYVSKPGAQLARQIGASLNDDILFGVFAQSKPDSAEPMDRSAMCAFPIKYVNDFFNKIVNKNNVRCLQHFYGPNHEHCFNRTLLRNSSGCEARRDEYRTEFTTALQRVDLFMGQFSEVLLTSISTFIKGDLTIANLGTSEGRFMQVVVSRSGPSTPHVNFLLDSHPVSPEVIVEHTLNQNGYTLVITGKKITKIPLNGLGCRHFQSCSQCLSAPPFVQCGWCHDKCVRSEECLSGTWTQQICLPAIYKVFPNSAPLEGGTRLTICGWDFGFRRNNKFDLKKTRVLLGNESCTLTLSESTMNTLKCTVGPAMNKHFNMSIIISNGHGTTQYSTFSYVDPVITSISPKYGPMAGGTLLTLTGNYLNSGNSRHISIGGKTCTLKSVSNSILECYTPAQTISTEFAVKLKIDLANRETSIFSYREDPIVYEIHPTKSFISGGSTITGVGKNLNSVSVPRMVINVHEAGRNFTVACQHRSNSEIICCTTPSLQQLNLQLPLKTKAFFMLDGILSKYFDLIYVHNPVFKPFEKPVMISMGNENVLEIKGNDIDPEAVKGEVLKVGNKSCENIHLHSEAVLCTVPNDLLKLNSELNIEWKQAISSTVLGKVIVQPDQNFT

Target: T1, recombinant c-Met antigen (human, UniProt P08581 25-932, limits assumed)
T1 construct: also called immobilized Met antigen; human Met antigen
Experiment: monoclonal phage ELISA and sequencing of positive clones

B1: anti-Met scFv-S1 (scFv)
scFv: ELQMTQSPSLLSASTGDRVTISCRASQSISSYLNWYQQKPGKAPKLLIYTRSSLQSGVPSRFSGSGSGTDFTLTISSLQPEDFATYYCQQSYSTPHTFGQGTKLEIKGGSSRSSSSGGGGSGGGGEVQLVESGGGVVQPGRSLRLSCAASGFTFSSYAMHWVRQAPGKGLEWVAVIWYDGSNRYYADSVKGRFTISRDNSKNTLYLQMNSLRAEDTAVYYCASQATEGLIWGQGTLVTVSP
notes: also called scFv Si; S1 phage
  binding: binds
